Test results taken from paper doi:10.1101/2024.07.22.24310683.
Results are given in words; binding and its absence hold for the method and conditions named. In cells and extracts the contact can be indirect. Some entries that bind do so weakly or less than the wild type.

By UniProt entry, the sequences of proteins in these tests, tags left out. Where a name states a change or a piece, a line headed by the entry shows the natural chain unless it says otherwise.
UniProt P63010, whole entry: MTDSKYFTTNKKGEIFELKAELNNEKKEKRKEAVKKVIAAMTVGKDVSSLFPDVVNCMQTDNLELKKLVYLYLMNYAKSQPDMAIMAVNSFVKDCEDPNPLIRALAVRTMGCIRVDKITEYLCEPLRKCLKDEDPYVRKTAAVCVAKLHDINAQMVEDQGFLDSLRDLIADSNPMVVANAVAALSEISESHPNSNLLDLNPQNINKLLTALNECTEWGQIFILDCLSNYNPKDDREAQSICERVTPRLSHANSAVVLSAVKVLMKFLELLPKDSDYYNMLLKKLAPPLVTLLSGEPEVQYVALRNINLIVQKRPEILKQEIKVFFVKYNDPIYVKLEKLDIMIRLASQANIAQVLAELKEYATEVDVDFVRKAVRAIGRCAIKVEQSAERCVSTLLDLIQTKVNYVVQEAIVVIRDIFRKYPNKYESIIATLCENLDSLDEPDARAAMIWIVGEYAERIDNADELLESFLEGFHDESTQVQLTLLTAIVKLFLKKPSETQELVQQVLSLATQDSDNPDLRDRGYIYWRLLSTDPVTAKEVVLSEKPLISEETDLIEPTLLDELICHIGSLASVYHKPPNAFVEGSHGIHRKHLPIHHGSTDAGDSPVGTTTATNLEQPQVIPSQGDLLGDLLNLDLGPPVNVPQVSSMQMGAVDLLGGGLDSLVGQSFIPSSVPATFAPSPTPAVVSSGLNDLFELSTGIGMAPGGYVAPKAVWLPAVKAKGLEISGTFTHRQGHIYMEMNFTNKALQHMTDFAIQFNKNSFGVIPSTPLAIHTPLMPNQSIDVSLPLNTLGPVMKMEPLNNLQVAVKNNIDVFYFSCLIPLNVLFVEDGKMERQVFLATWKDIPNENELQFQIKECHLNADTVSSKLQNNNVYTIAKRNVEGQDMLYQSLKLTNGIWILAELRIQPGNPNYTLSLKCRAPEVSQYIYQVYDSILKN
UniProt Q96CW1, whole entry: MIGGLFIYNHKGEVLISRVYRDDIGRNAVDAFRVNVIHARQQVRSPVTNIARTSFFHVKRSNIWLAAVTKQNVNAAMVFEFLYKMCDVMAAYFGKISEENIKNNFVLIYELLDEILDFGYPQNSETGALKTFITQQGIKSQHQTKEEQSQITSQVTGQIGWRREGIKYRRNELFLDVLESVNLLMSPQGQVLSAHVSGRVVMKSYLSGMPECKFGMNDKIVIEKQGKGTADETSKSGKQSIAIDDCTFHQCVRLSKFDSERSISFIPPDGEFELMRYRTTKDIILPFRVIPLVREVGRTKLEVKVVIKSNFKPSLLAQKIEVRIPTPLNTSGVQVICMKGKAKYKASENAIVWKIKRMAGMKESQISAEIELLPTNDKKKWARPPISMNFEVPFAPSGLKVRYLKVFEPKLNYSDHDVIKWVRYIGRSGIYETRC

Key:
Experiment in all cases: co-IP
[1] = molecular target: HA-tagged wild-type AP2σ2 (Adaptor-Related Protein Complex 2 Sigma-1 Subunit) (human) (UniProt P53680)
[2] = molecular target: HA-tagged AP2σ2 p.Lys18Asn variant (human) (UniProt P53680)
[3] = molecular target: HA-tagged AP2σ2 p.Lys18Glu variant (human) (UniProt P53680)
[4] = molecular target: HA-tagged AP2σ2 R15L variant (FHH3-associated) (human) (UniProt P53680)
[5] = molecular target: HA-tagged AP2σ2 p.Arg10Gln variant (human) (UniProt P53680)
[6] = molecular target: HA-tagged AP2σ2 p.Arg61His variant (human) (UniProt P53680)
[7] = molecular target: HA-tagged AP2σ2 p.Arg10Trp variant (human) (UniProt P53680)

Measured: binding

AP2β2 subunit of the AP2 complex (AP2 subunit beta-1) (from UniProt P63010 1-937)
binds: [1] | [2] | [3] | [4]

AP2μ2 subunit of the AP2 complex (from UniProt Q96CW1 1-435)
binds: [5] | [1] | [2] | [6] | [3] | [4] | [7]
